Experimental data: publication PMC10837402 (EJNMMI Radiopharmacy and Chemistry, 2024)

Experiment: general procedure: Fmoc solid-phase peptide synthesis; Rink Amide MBHA resin; HATU/HOAt/DIEA
Conditions: for final HPLC purity: analytical HPLC (Luna C18), UV 220 nm
[1] = whole synthesis, scale of the general procedure 0.05 mmol

Row | Substance | final HPLC purity [1] | isolated yield [1] | step yield (late stage modification step) | final HPLC purity (late stage modification step)
1 | D-Phe-Gln-2-Me-Trp-Ala-Val-Gly-His-Leu-Thz-NH2 | 99% | 23% |  | 
2 | D-Phe-Gln-4-F-Trp-Ala-Val-Gly-His-Leu-Thz-NH2 | 96% | 36% |  | 
3 | D-Phe-Gln-4-Me-Trp-Ala-Val-Gly-His-Leu-Thz-NH2 | 99% | 26% |  | 
4 | D-Phe-Gln-5-F-Trp-Ala-Val-Gly-His-Leu-Thz-NH2 | 99% | 46% |  | 
5 | D-Phe-Gln-5-Me-Trp-Ala-Val-Gly-His-Leu-Thz-NH2 | 98% | 33% |  | 
6 | D-Phe-Gln-5-OH-Trp-Ala-Val-Gly-His-Leu-Thz-NH2 | 99% | 21% |  | 
7 | D-Phe-Gln-6-Cl-Trp-Ala-Val-Gly-His-Leu-Thz-NH2 | 98% | 18% |  | 
8 | D-Phe-Gln-6-F-Trp-Ala-Val-Gly-His-Leu-Thz-NH2 | 99% | 40% |  | 
9 | D-Phe-Gln-6-Me-Trp-Ala-Val-Gly-His-Leu-Thz-NH2 | 99% | 29% |  | 
10 | D-Phe-Gln-7-Aza-Trp-Ala-Val-Gly-His-Leu-Thz-NH2 | 99% | 8.4% |  | 
11 | D-Phe-Gln-7-F-Trp-Ala-Val-Gly-His-Leu-Thz-NH2 | 98% | 24% |  | 
12 | D-Phe-Gln-7-Me-Trp-Ala-Val-Gly-His-Leu-Thz-NH2 | 99% | 25% |  | 
13 | D-Phe-Gln-Bta-Ala-Val-Gly-His-Leu-Thz-NH2 | 96% | 24% |  | 
14 | D-Phe-Gln-D-Tpi-Ala-Val-Gly-His-Leu-Thz-NH2 | 96% | 20% |  | 
15 | D-Phe-Gln-Trp(Me)-Ala-Val-Gly-His-Leu-Thz-NH2 | 99% | 30% |  | 
16 | D-Phe-Gln-Trp-2-Abu-Val-Gly-His-Leu-Thz-NH2 | 99% | 27% |  | 
17 | D-Phe-Gln-Trp-Aib-Val-Gly-His-Leu-Thz-NH2 | 99% | 13% |  | 
18 | D-Phe-Gln-Trp-Ala-2,3-dehydro-Val-Gly-His-Leu-Thz-NH2 | 99% | 5.0% |  | 
19 | D-Phe-Gln-Trp-Ala-2-Abu-Gly-His-Leu-Thz-NH2 | 96% | 46% |  | 
20 | D-Phe-Gln-Trp-Ala-3-amino-1-carboxymethylcarprolactame-His-Leu-Thz-NH2 | 95% | 10% |  | 
21 | D-Phe-Gln-Trp-Ala-Tle-Gly-His-Leu-Thz-NH2 (FQWA; D-residue, Tle, Thz, C-terminal amide; printed: Phe-Gln-Trp-Ala-) | 99% | 26% |  | 
22 | D-Phe-Gln-Trp-Ala-Val-Gly-His-Leu-Thz-NH2 | 99% | 41% |  | 
23 | D-Phe-Gln-Trp-Ala-Val-Gly-NMe-His-Leu-Thz-NH2 | 98% | 29% |  | 

Row | Substance | final HPLC purity [1] | isolated yield [1] | step yield (late stage modification step) | final HPLC purity (late stage modification step)
24 | D-Phe-Gln-Trp-Ala-cyclobutaneacetic acid-Gly-His-Leu-Thz-NH2 | 98% | 15% |  | 
25 | D-Phe-Gln-Trp-Ala-cyclopropylglycine-Gly-His-Leu-Thz-NH2 | 98% | 11% |  | 
26 | D-Phe-Hse-Trp-Ala-Val-Gly-His-Leu-Thz-NH2 | 98% | 2.2% |  | 
27 | DOTA-Pip- D-Phe-Gln-α-Me-Trp-Ala-Val-Gly-His-Leu-Thz-NH2 | 98% | 4.0% |  | 
28 | DOTA-Pip-D-Phe-Gln-2-Me-Trp-Ala-Val-Gly-His-Leu-Thz-NH2 | 99% | 16% |  | 
29 | DOTA-Pip-D-Phe-Gln-5-Me-Trp-Ala-Val-Gly-His-Leu-Thz-NH2 | 98% | 19% |  | 
30 | DOTA-Pip-D-Phe-Gln-7-F-Trp-Ala-Tle-Gly-NMe-His-Leu-Thz-NH2 | 97% | 21% |  | 
31 | DOTA-Pip-D-Phe-Gln-7-F-Trp-Ala-Val-Gly-His-Leu-Thz-NH2 | 98% | 33% |  | 
32 | DOTA-Pip-D-Phe-Gln-Trp-Ala-Tle-Gly-His-Leu-Thz-NH2 | 99% | 26% |  | 
33 | DOTA-Pip-D-Phe-Gln-Trp-Ala-Tle-Gly-NMe-His-Leu-Thz-NH2 | 97% | 11% |  | 
34 | DOTA-Pip-D-Phe-Gln-Trp-Ala-Val-Gly-NMe-His-Leu-Thz-NH2 | 95% | 19% |  | 
35 | DOTA-Pip-D-Phe-His-Trp-Ala-Tle-Gly-NMe-His-Leu-Thz-NH2 | 99% | 17% |  | 
36 | DOTA-Pip-D-Phe-His-Trp-Ala-Tle-NMe-Gly-NMe-His-Leu-Thz-NH2 | 99% | 16% |  | 
37 | Ga-DOTA-Pip-D-Phe-Gln-2-Me-Trp-Ala-Val-Gly-His-Leu-Thz-NH2 |  |  | 81% | 99%
38 | Ga-DOTA-Pip-D-Phe-Gln-5-Me-Trp-Ala-Val-Gly-His-Leu-Thz-NH2 |  |  | 84% | 98%
39 | Ga-DOTA-Pip-D-Phe-Gln-7-F-Trp-Ala-Tle-Gly-NMe-His-Leu-Thz-NH2 |  |  | 87% | 99%
40 | Ga-DOTA-Pip-D-Phe-Gln-7-F-Trp-Ala-Val-Gly-His-Leu-Thz-NH2 |  |  | 82% | 99%
41 | Ga-DOTA-Pip-D-Phe-Gln-Trp-Ala-Tle-Gly-His-Leu-Thz-NH2 |  |  | 59% | 99%
42 | Ga-DOTA-Pip-D-Phe-Gln-Trp-Ala-Tle-Gly-NMe-His-Leu-Thz-NH2 |  |  | 54% | 98%
43 | Ga-DOTA-Pip-D-Phe-Gln-Trp-Ala-Val-Gly-NMe-His-Leu-Thz-NH2 |  |  | 73% | 99%
44 | Ga-DOTA-Pip-D-Phe-Gln-α-Me-Trp-Ala-Val-Gly-His-Leu-Thz-NH2 |  |  | 72% | 97%
45 | Ga-DOTA-Pip-D-Phe-His-Trp-Ala-Tle-Gly-NMe-His-Leu-Thz-NH2 |  |  | 53% | 99%
46 | Ga-DOTA-Pip-D-Phe-His-Trp-Ala-Tle-NMe-Gly-NMe-His-Leu-Thz-NH2 |  |  | 47% | 99%
